Results on 1 compound are retold here after patent EP0510151B1, “IMPROVED ANTI-PLAQUE COMPOSITIONS COMPRISING A COMBINATION OF MORPHOLINOAMINO ALCOHOL AND ANTI-MICROBIAL AGENT” (Pharmacia AB, priority 1990, dated 1992).

The test system of experiment [1] is Bacteroides melaninogenicus. As to the kind of experiment: Minimal inhibitory concentration (MIC) by broth dilution and checkerboard titration of combinations. Type of experiment: cell-based. The note with it: B. melaninogenicus (J18M2). How it is done:
(§1) The minimal inhibitory concentration (MIC) of the test compound is the minimum concentration of compound required to inhibit growth of the test microorganism. The MIC is determined by serially diluting the test solution through tubes of sterile broth. The tubes are inoculated and incubated at 37°C for 48 hours. At the end of the incubation time, growth is checked macroscopically. The lowest concentration of test compound to inhibit growth is the MIC. This technique is used to assess antimicrobial activity of combinations. The checkerboard is the pattern found by multiple combinations of two agents in concentrations equal to, above and below their minimal inhibitory concentration for the microorganism tested against. The checkerboard consists of columns which contain the same amount of one agent which is diluted along the x-axis and rows which each contain the same amount of the second agent diluted along the y-axis. Thus each tube is a unique combination of the two agents. […] A method for illustrating the effect of the combination of the two agents is obtained by plotting the MIC's of each agent alone and the MIC's for these agents in combination. Antimicrobial synergy is indicated if the MIC's for the agents in combination are lower than the MIC's for the agents alone.
In general terms: Broth dilution looks for growth in wells or tubes with falling amounts of substance.

A further experiment concerns Streptococcus mutans. The experiment is described as above. Type of experiment: cell-based. Conditions: S. mutans (ATCC 2517S). As for the experimental part:
as §1

Setting [2] is: agent alone (other agent 0), Table VIII.
The mark [3] stands for this setting: in combination with 50 milligrams/liter morpholinoamino alcohol HCl.
Setting [4] is: in combination with 100 milligrams/liter morpholinoamino alcohol HCl.

With `CCCCCCCCCCCCCCCC[n+]1ccccc1` [cetyl pyridinium chloride, reference compound], the “Minimum Inhibitory Concentration” value in experiment [1] (setting [2]) amounted to 0.0125 milligrams/liter; in experiment [1] (setting [3]), 0.006 milligrams/liter; in experiment [1] (setting [4]), 0.003 milligrams/liter; in the experiment with Streptococcus mutans (setting [2]), 0.025 milligrams/liter; in the experiment on Streptococcus mutans (setting [3]) it was 0.0188 milligrams/liter; in the experiment on Streptococcus mutans (setting [4]), 0.0125 milligrams/liter.
